Source: PMC11352961 (RSC Chemical Biology, 2024)
HELM strings list residues between dots; [ac] is acetyl, [am] amide, other brackets name non-standard units.

Experiment: general procedure: Fmoc solid-phase peptide synthesis; Rink Amide AM resin LL (Novabiochem)
Conditions: whole synthesis, TFA salt

Substance	isolated yield [%]
PEPTIDE1{[dR].[dL].[dK].[dL].[dL].[dK].[dL].[dL].[dK].[dK].[am]}|PEPTIDE2{[dR].[dL].[dK].[dL].[dL].[dK].[dL].[dL]}|PEPTIDE3{[dR].[dL].[dK].[dL].[dL]}|PEPTIDE4{[dR].[dL].[dK].[dL].[dL]}|PEPTIDE5{[dR].[dL]}|PEPTIDE6{[dR].[dL]}|PEPTIDE7{[dR].[dL]}|PEPTIDE8{[dR].[dL]}|CHEM1{[C18]}$PEPTIDE1,PEPTIDE2,9:R3-8:R2|PEPTIDE1,PEPTIDE3,6:R3-5:R2|PEPTIDE2,PEPTIDE4,6:R3-5:R2|PEPTIDE1,PEPTIDE5,3:R3-2:R2|PEPTIDE2,PEPTIDE6,3:R3-2:R2|PEPTIDE3,PEPTIDE7,3:R3-2:R2|PEPTIDE4,PEPTIDE8,3:R3-2:R2|PEPTIDE1,CHEM1,10:R3-1:R2$$$V2.0	2.3
PEPTIDE1{[dR].[dL].[dK].[dR].[dL].[dK].[dL].[dL].[dK].[dK].[am]}|PEPTIDE2{[dR].[dL].[dK].[dR].[dL].[dK].[dL].[dL]}|PEPTIDE3{[dR].[dL].[dK].[dR].[dL]}|PEPTIDE4{[dR].[dL].[dK].[dR].[dL]}|PEPTIDE5{[dR].[dL]}|PEPTIDE6{[dR].[dL]}|PEPTIDE7{[dR].[dL]}|PEPTIDE8{[dR].[dL]}|CHEM1{[C18]}$PEPTIDE1,PEPTIDE2,9:R3-8:R2|PEPTIDE1,PEPTIDE3,6:R3-5:R2|PEPTIDE2,PEPTIDE4,6:R3-5:R2|PEPTIDE1,PEPTIDE5,3:R3-2:R2|PEPTIDE2,PEPTIDE6,3:R3-2:R2|PEPTIDE3,PEPTIDE7,3:R3-2:R2|PEPTIDE4,PEPTIDE8,3:R3-2:R2|PEPTIDE1,CHEM1,10:R3-1:R2$$$V2.0	4.3
PEPTIDE1{[dR].[dL].[dK].[dR].[dL].[dK].[dR].[dL].[dK].[dK].[am]}|PEPTIDE2{[dR].[dL].[dK].[dR].[dL].[dK].[dR].[dL]}|PEPTIDE3{[dR].[dL].[dK].[dR].[dL]}|PEPTIDE4{[dR].[dL].[dK].[dR].[dL]}|PEPTIDE5{[dR].[dL]}|PEPTIDE6{[dR].[dL]}|PEPTIDE7{[dR].[dL]}|PEPTIDE8{[dR].[dL]}|CHEM1{[C16]}$PEPTIDE1,PEPTIDE2,9:R3-8:R2|PEPTIDE1,PEPTIDE3,6:R3-5:R2|PEPTIDE2,PEPTIDE4,6:R3-5:R2|PEPTIDE1,PEPTIDE5,3:R3-2:R2|PEPTIDE2,PEPTIDE6,3:R3-2:R2|PEPTIDE3,PEPTIDE7,3:R3-2:R2|PEPTIDE4,PEPTIDE8,3:R3-2:R2|PEPTIDE1,CHEM1,10:R3-1:R2$$$V2.0	5.1
PEPTIDE1{[dR].[dL].[dK].[dR].[dL].[dK].[dR].[dL].[dK].[dK].[am]}|PEPTIDE2{[dR].[dL].[dK].[dR].[dL].[dK].[dR].[dL]}|PEPTIDE3{[dR].[dL].[dK].[dR].[dL]}|PEPTIDE4{[dR].[dL].[dK].[dR].[dL]}|PEPTIDE5{[dR].[dL]}|PEPTIDE6{[dR].[dL]}|PEPTIDE7{[dR].[dL]}|PEPTIDE8{[dR].[dL]}|CHEM1{[C18]}$PEPTIDE1,PEPTIDE2,9:R3-8:R2|PEPTIDE1,PEPTIDE3,6:R3-5:R2|PEPTIDE2,PEPTIDE4,6:R3-5:R2|PEPTIDE1,PEPTIDE5,3:R3-2:R2|PEPTIDE2,PEPTIDE6,3:R3-2:R2|PEPTIDE3,PEPTIDE7,3:R3-2:R2|PEPTIDE4,PEPTIDE8,3:R3-2:R2|PEPTIDE1,CHEM1,10:R3-1:R2$$$V2.0	4.7
PEPTIDE1{[dR].[dL].[dK].[dR].[dL].[dK].[dR].[dL].[dK].[dK].[dA].[am]}|PEPTIDE2{[dR].[dL].[dK].[dR].[dL].[dK].[dR].[dL]}|PEPTIDE3{[dR].[dL].[dK].[dR].[dL]}|PEPTIDE4{[dR].[dL].[dK].[dR].[dL]}|PEPTIDE5{[dR].[dL]}|PEPTIDE6{[dR].[dL]}|PEPTIDE7{[dR].[dL]}|PEPTIDE8{[dR].[dL]}|CHEM1{[C18]}$PEPTIDE1,PEPTIDE2,9:R3-8:R2|PEPTIDE1,PEPTIDE3,6:R3-5:R2|PEPTIDE2,PEPTIDE4,6:R3-5:R2|PEPTIDE1,PEPTIDE5,3:R3-2:R2|PEPTIDE2,PEPTIDE6,3:R3-2:R2|PEPTIDE3,PEPTIDE7,3:R3-2:R2|PEPTIDE4,PEPTIDE8,3:R3-2:R2|PEPTIDE1,CHEM1,10:R3-1:R2$$$V2.0	2.3
